Measurements from patent US20070116702A1, “Survival promoting NCAM binding and MCAM ligand binding compounds” (priority 2001, published 2007).
No constants are given. Whether binding was seen depends on the method and setting. Some results given as binding are weak or reduced against the parent protein; the word gives no strength.

By UniProt entry, the sequences of proteins in these tests, tags left out. Where a name states a change or a piece, a line headed by the entry shows the natural chain unless it says otherwise. Residues count along the entry.
UniProt P13596, residues 20-208: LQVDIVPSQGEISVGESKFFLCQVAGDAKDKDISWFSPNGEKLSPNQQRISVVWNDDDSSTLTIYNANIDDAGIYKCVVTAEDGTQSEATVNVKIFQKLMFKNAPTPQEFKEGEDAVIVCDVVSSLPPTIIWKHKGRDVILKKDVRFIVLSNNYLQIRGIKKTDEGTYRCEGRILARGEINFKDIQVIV

Target: NCAM(20-208), unmutated double domain Ig1-Ig2 (UniProt P13596)
Assay: gel filtration chromatography, homophilic dimer

- binding: binds
Substance: NCAM(20-208), unmutated double domain Ig1-Ig2 (from UniProt P13596 20-208) (receptor)
